The text below walks through data of publication PMC7379993.

Results are given in words; binding and its absence hold for the method and conditions named. Binding seen in cells or lysates may run through a third protein. Sequences can lack the tags named with a protein.

The assay concerns the target Flag-tagged mutant KRAS G12D (human) (UniProt P01116). Put plainly: co-IP; PANC-1 cells co-transfected with Flag-tagged mutant KRAS and Myc-tagged RC, ODC or RC-ODC; 1-1.5 mg lysate protein with anti-Flag antibody 4 h at 4 °C, then protein A/G-Sepharose 2 h at 4 °C; blot.

B1: ornithine decarboxylase with the Myc tag (protein, UniProt P11926 1-461)
chain: MNNFGNEEFDCHFLDEGFTAKDILDQKINEVSSSDDKDAFYVADLGDILKKHLRWLKALPRVTPFYAVKCNDSKAIVKTLAATGTGFDCASKTEIQLVQSLGVPPERIIYANPCKQVSQIKYAANNGVQMMTFDSEVELMKVARAHPKAKLVLRIATDDSKAVCRLSVKFGATLRTSRLLLERAKELNIDVVGVSFHVGSGCTDPETFVQAISDARCVFDMGAEVGFSMYLLDIGGGFPGSEDVKLKFEEITGVINPALDKYFPSDSGVRIIAEPGRYYVASAFTLAVNIIAKKIVLKEQTGSDDEDESSEQTFMYYVNDGVYGSFNCILYDHAHVKPLLQKRPKPDEKYYSSSIWGPTCDGLDRIVERCDLPEMHVGDWMLFENMGAYTVAAASTFNGFQRPTIYYVMSGPAWQLMQQFQNPDFPPEVEEQDASTLPVSCAWESGMKRHRAACASASINV
Consider B1, for which the binding result is given as “no binding”.
